Results are given in words; binding and its absence hold for the method and conditions named. Binding seen in cells or lysates may run through a third protein. Some binding calls cover weakened binding; strength is not graded here.
Biological target: UQCRQ-FLAG, transfected in HEK293T (UniProt O14949)
Assay: co-IP; mitochondria of HEK293T transiently expressing UQCRQ-FLAG and BR-HA; FLAG immunoprecipitation as for the mouse mitochondria; immunoblot for BR-HA

By UniProt entry, the sequences of proteins in these tests, tags left out.
UniProt O14949: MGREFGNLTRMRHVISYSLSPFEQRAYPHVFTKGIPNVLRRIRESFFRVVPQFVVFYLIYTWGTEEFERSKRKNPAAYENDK

binding: binds
Substance: BR-HA, transfected in HEK293T (from UniProt Q69YU5 1-71)
